The assay concerns the target ADP ribosylation factor GTPase activating protein 3 (ArfGAP3) (mouse (endogenous in C2C12)) (UniProt Q9D8S3). As to the kind of experiment: co-IP; antibody against ArfGAP3 on C2C12 myoblasts with or without 20 g/L D-gal treatment; products immunoblotted for ArfGAP3 and Rab5a.

Sequences of proteins named here, by UniProt entry; tags and fusion partners are left off.
UniProt Q9D8S3: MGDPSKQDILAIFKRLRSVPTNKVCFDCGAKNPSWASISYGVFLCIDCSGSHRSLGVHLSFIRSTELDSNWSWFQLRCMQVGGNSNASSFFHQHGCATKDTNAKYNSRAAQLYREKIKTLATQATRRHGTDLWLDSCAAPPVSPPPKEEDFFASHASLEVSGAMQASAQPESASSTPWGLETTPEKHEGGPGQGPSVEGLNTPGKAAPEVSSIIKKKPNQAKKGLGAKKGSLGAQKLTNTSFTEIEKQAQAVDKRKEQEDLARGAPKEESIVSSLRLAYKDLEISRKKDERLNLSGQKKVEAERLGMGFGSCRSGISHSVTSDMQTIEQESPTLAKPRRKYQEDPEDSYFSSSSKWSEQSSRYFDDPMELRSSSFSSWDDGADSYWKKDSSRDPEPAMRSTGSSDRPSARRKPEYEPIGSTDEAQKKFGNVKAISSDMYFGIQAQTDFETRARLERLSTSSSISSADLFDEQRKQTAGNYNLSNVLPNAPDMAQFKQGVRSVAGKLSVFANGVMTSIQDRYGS

No constants are given. Whether binding was seen depends on the method and setting. Binding seen in cells or lysates may run through a third protein. Some results given as binding are weak or reduced against the parent protein; the word gives no strength.

B1: Rab5a (protein, UniProt Q9CQD1 1-215)
chain: MANRGATRPNGPNTGNKICQFKLVLLGESAVGKSSLVLRFVKGQFHEFQESTIGAAFLTQTVCLDDTTVKFEIWDTAGQERYHSLAPMYYRGAQAAIVVYDITNEESFARAKNWVKELQRQASPNIVIALSGNKADLANKRAVDFQEAQSYADDNSLLFMETSAKTSMNVNEIFMAIAKKLPKNEPQNPGANSARGRGVDLTEPAQPARSQCCSN
On to B1, for which the binding entry is “binds”.

Source of the values: PMC11832210.
